This passage reports binding results from publication PMC8639890.

Amino acid sequences for entries named in this document (tags omitted).
UniProt P02340: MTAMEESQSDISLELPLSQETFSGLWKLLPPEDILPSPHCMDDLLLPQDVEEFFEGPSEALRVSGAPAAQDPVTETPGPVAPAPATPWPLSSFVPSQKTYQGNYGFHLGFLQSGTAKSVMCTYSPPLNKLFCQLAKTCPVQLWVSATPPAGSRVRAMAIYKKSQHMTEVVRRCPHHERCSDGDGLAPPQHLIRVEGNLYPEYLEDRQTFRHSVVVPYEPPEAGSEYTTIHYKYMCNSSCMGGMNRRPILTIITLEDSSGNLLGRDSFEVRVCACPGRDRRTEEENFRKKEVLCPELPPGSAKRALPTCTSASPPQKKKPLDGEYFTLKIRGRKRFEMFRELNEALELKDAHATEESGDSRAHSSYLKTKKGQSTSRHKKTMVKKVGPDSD

In this test the target is p53 tumor suppressor (mouse (endogenous in Mefs)) (UniProt P02340). Briefly: co-IP; Mef lysate (100 mM Tris-HCl pH 8, 100 mM NaCl, 1 mM EDTA, 1% NP-40, 1 mM DTT); 1 mg total protein incubated overnight at 4 °C with 1 μg anti-p53 (1C12) and protein G-Dynabeads; immunoblot with anti-p53 and anti-E4F1.

Results are given in words; binding and its absence hold for the method and conditions named. Binding seen in cells or lysates may run through a third protein.

B1: E4F1 mutant lacking its p53 interaction domain (Δ520–569) (protein, UniProt Q66K89)
chain: MEGAMAVRVTAAHTAEAQAEAGREAGEGAVAAVAAALAPSGFLGLPAPFSEEDEDDVHRCGRCQAEFTALEDFVQHKIQKACQRAPPEALPATPATTALLGQEVVPAAPGPEEPITVAHIVVEAASLAADISHASDLVGGGHIKEVIVAAEAELGDGEMAEAPGSPRQQGLGLAGEGEQAQVKLLVNKDGRYVCALCHKTFKTGSILKAHMVTHSSRKDHECKLCGASFRTKGSLIRHHRRHTDERPYKCSKCGKSFRESGALTRHLKSLTPCTEKIRFSVSKDVVVSKEDARAGSGAGAAGLGTATSSVTGEPIETSPVIHLVTDAKGTVIHEVHVQMQELSLGMKALAPEPPVSQELPCSSEGSRENLLHQAMQNSGIVLERAAGEEGALEPAPAAGSSPQPLAVAAPQLPVLEVQPLETQVASEASAVPRTHPCPQCSETFPTAATLEAHKRGHTGPRPFACAQCGKAFPKAYLLKKHQEVHVRERRFRCGDCGKLYKTIAHVRGHRRVHSDERPYTGEKPFKCYKCGRGFAEHGTLNRHLRTKGGCLLEVEELLVSEDSPAAATTVLTEDPHTVLVEFSSVVADTQEYIIEATADDAETSEATEIIEGTQTEVDSHIMKVVQQIVHQASAGHQIIVQNVTMDEETALGPEAAAADTITIATPESLTEQVAMTLASAISEGTVLAARAGTSGTEQATVTMVSSEDIEILEHAGELVIASPEGQLEVQTVIV
In the case of B1, the binding entry is given as “no binding”.
